Values quoted from earlier work in patent US12358875B2, “N-(phenyl)-indole-3-sulfonamide derivatives and related compounds as GPR17 modulators for treating CNS disorders such as multiple sclerosis” (UCB Pharma GMBH, priority 2019, dated 2025).
For at least one compound, name, drawing or mass did not settle the structure.

By UniProt entry, the sequences of proteins in these tests, tags left out.
UniProt Q13304, whole entry, species assumed: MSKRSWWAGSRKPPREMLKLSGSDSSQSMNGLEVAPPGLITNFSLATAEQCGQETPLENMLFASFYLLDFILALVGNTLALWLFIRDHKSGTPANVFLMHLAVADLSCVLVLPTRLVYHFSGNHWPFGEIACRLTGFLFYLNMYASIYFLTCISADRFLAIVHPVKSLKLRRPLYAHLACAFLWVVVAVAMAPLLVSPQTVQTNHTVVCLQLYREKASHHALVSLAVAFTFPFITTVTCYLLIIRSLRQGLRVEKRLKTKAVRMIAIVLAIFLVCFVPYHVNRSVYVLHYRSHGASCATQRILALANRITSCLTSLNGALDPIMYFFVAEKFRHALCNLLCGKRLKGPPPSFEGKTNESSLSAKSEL

Molecular target: GPR17 (Homo sapiens, UniProt Q13304)
Conditions: Köse et al, ACS Med. Chem. Lett. 2014; cited from earlier work

Structure (SMILES): O=C(Nc1cccc2c(=O)cc(-c3nnn[nH]3)oc12)c1ccc(OCCCCc2ccccc2)cc1 [prankulast, pranlukast]
- affinity to GPR17: high micromolar range
